In doi:10.1101/2022.05.04.490592:
Results are given in words; binding and its absence hold for the method and conditions named. Binding seen in cells or lysates may run through a third protein. Some entries that bind do so weakly or less than the wild type.

Amino acid sequences for entries named in this document (tags omitted).
UniProt Q9NP66: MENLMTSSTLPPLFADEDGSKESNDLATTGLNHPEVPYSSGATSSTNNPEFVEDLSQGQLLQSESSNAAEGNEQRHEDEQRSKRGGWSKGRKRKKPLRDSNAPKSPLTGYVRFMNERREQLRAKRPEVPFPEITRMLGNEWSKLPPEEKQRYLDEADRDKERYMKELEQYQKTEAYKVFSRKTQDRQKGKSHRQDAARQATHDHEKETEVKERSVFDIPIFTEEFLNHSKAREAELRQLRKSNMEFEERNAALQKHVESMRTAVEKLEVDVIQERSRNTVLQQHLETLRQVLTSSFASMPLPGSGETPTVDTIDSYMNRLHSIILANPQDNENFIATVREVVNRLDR
UniProt Q9UBB5: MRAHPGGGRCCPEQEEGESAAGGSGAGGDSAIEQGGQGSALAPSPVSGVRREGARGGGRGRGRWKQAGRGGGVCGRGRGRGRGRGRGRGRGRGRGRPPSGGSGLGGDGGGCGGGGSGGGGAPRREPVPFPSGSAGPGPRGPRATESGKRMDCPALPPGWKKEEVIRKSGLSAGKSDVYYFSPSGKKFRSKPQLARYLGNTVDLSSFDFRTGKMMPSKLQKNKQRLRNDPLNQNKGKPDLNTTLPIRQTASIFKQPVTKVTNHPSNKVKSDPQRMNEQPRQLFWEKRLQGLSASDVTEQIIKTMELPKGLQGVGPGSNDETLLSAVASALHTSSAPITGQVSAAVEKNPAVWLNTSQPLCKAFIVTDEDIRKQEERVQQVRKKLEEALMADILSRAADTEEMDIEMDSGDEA
UniProt Q92769: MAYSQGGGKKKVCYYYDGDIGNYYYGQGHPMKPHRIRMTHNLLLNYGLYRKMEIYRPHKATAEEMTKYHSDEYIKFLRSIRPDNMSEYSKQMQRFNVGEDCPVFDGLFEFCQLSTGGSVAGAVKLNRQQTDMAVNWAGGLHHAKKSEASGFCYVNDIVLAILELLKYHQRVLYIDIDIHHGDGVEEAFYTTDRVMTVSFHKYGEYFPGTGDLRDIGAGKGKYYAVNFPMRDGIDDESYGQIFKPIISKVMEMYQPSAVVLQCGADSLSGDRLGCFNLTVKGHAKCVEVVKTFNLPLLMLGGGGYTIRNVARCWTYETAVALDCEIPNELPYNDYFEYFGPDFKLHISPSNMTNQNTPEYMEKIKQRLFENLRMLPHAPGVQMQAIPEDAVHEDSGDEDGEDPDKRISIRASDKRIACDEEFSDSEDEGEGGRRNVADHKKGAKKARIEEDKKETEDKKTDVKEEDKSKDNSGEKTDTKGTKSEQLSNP
UniProt Q14839: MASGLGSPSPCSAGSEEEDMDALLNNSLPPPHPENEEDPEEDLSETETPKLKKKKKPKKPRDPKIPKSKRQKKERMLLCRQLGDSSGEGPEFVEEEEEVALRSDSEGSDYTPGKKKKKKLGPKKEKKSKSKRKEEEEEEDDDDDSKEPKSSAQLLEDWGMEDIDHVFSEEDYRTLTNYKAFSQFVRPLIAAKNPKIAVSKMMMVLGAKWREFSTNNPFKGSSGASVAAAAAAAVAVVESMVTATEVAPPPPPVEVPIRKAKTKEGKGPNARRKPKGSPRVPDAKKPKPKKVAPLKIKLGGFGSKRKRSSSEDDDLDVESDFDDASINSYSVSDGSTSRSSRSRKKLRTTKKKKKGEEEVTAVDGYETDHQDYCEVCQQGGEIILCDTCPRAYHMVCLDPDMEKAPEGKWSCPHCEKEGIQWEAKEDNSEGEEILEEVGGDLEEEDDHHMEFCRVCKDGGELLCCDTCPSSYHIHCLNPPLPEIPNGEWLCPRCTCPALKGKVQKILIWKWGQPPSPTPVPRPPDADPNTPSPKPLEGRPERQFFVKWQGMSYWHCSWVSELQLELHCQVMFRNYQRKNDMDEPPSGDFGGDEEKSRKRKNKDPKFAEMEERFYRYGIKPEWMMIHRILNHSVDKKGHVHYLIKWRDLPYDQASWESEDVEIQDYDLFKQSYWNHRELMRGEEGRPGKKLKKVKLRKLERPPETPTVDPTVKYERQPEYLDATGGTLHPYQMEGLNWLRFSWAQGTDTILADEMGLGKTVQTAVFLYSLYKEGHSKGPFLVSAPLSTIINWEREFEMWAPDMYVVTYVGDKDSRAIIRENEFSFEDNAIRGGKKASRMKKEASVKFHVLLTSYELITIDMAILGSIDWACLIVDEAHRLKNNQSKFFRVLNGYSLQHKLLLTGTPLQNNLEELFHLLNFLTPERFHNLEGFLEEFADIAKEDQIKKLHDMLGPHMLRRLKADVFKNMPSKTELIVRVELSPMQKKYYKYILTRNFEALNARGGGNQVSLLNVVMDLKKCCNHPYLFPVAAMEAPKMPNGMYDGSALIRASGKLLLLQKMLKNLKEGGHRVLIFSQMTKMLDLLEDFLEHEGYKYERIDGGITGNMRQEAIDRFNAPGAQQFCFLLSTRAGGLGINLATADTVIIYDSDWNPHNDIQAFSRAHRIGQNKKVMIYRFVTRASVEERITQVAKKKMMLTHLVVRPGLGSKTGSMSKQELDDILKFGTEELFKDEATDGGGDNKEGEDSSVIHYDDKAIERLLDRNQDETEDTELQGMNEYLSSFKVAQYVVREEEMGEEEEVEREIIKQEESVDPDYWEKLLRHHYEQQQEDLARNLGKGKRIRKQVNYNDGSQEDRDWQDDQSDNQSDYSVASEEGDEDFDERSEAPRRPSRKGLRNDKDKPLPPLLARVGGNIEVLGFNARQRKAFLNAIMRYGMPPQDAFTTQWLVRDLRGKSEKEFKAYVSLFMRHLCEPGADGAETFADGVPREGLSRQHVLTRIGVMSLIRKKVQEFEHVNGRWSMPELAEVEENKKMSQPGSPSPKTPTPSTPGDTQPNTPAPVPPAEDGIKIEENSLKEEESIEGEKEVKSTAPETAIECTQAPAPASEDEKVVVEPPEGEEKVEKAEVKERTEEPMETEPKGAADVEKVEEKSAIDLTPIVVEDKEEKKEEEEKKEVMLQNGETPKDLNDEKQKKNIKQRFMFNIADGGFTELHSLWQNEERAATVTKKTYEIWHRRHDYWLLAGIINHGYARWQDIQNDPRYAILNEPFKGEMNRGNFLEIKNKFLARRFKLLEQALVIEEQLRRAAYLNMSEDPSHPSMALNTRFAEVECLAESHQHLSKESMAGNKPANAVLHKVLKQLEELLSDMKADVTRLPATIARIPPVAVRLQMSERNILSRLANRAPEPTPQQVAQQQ
UniProt Q13547: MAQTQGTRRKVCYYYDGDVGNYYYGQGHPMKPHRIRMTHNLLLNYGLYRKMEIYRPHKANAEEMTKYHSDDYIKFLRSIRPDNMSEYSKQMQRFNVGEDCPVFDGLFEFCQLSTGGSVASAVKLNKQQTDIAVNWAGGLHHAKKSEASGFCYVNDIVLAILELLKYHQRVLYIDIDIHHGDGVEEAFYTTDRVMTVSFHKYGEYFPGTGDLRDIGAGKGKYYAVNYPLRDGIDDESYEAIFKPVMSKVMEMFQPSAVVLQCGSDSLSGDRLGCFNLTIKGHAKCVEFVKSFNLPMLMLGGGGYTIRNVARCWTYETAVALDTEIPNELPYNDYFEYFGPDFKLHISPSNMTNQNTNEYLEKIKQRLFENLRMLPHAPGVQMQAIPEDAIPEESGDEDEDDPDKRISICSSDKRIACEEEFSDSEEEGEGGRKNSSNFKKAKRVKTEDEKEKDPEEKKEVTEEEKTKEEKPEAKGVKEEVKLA

B1: HMG20B (protein, UniProt Q9P0W2 1-317)
chain: MSHGPKQPGAAAAPAGGKAPGQHGGFVVTVKQERGEGPRAGEKGSHEEEPVKKRGWPKGKKRKKILPNGPKAPVTGYVRFLNERREQIRTRHPDLPFPEITKMLGAEWSKLQPTEKQRYLDEAEREKQQYMKELRAYQQSEAYKMCTEKIQEKKIKKEDSSSGLMNTLLNGHKGGDCDGFSTFDVPIFTEEFLDQNKAREAELRRLRKMNVAFEEQNAVLQRHTQSMSSARERLEQELALEERRTLALQQQLQAVRQALTASFASLPVPGTGETPTLGTLDFYMARLHGAIERDPAQHEKLIVRIKEILAQVASEHL
B2: zinc finger protein ZNF512B (protein, UniProt Q96KM6 1-892)
chain: MTDPFCVGGRRLPGSSKSGPGKDGSRKEVRLPMLHDPPKMGMPVVRGGQTVPGQAPLCFDPGSPASDKTEGKKKGRPKAENQALRDIPLSLMNDWKDEFKAHSRVKCPNSGCWLEFPSIYGLKYHYQRCQGGAISDRLAFPCPFCEAAFTSKTQLEKHRIWNHMDRPLPASKPGPISRPVTISRPVGVSKPIGVSKPVTIGKPVGVSKPIGISKPVSVGRPMPVTKAIPVTRPVPVTKPVTVSRPMPVTKAMPVTKPITVTKSVPVTKPVPVTKPITVTKLVTVTKPVPVTKPVTVSRPIVVSKPVTVSRPIAISRHTPPCKMVLLTRSENKAPRATGRNSGKKRAADSLDTCPIPPKQARPENGEYGPSSMGQSSAFQLSADTSSGSLSPGSRPSGGMEALKAAGPASPPEEDPERTKHRRKQKTPKKFTGEQPSISGTFGLKGLVKAEDKARVHRSKKQEGPGPEDARKKVPAAPITVSKEAPAPVAHPAPGGPEEQWQRAIHERGEAVCPTCNVVTRKTLVGLKKHMEVCQKLQDALKCQHCRKQFKSKAGLNYHTMAEHSAKPSDAEASEGGEQEERERLRKVLKQMGRLRCPQEGCGAAFSSLMGYQYHQRRCGKPPCEVDSPSFPCTHCGKTYRSKAGHDYHVRSEHTAPPPEEPTDKSPEAEDPLGVERTPSGRVRRTSAQVAVFHLQEIAEDELARDWTKRRMKDDLVPETARLNYTRPGLPTLNPQLLEAWKNEVKEKGHVNCPNDCCEAIYSSVSGLKAHLASCSKGAHLAGKYRCLLCPKEFSSESGVKYHILKTHAENWFRTSADPPPKHRSQDSLVPKKEKKKNLAGGKKRGRKPKERTPEEPVAKLPPRRDDWPPGCRDKGARGSTGRKVGVSKAPEK

biological target: GFP-HMG20A (N-terminally GFP-tagged High Mobility Box 20A), stably expressed in HeLa Kyoto cells (human) (UniProt Q9NP66); assay: co-IP

binding, binds:
MBD2, endogenous in HeLa Kyoto cells (from UniProt Q9UBB5 1-411)
HDAC2, endogenous in HeLa Kyoto cells (from UniProt Q92769 1-488)
B1
B2

biological target: GFP-HMG20A, co-transfected in HEK293 (Expi293F) cells (human) (UniProt Q9NP66); assay: co-IP

binding, binds:
FLAG-CHD4 (from UniProt Q14839 1-1912)
HDAC1-FLAG (from UniProt Q13547 1-482)
